Test results from PubChem BioAssay AID1347076 (National Center for Advancing Translational Sciences (NCATS), 2019).
In all, about 400,000 compounds went through this assay and about 13,000 (3.2%) were called active. The shares of active, inactive and inconclusive entries below differ from those in the screen. Calls follow the shape of the dose curve; as a rule, active = well fitted cell-killing curve with a large enough effect; inconclusive = small, poorly fitted or top-dose-only effect, or effect the other way; inactive = flat fitted curve, though single readings scatter. Potencies of inconclusive entries are doubtful fits and often do not repeat.

experiment: qHTS assay for MDR1-selective chemotherapeutics: Primary screen using the drug-selected MDR subline cells KB-V1; settings: KB-V1 MDR cells viability, CellTiter-Glo, 72 h; activity change, negative = cytotoxicity: at 46.1 µM (top of the series); also: nearly all actives have a fitted effect of over 60% in size
In short: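 Potencies derive from concentration-effect curves fitted to normalized luminescence (CellTiter-Glo) of KB-V1 cells treated for 72 h at 37 degrees C in phenol-red-free DMEM containing 10% FBS.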
% is scaled to controls: 0 for no effect and ±100 for the full control effect; potency is read from the fitted curve at half-maximal effect.

SMILES	Potency	activity change, negative = cytotoxicity
CSc1ccccc1NC(=O)COC(=O)CCCOc1ccc(C)cc1	inconclusive: 25.9 µM [rising, single point]	
O=C(Nc1ccc(N2CCOCC2)cc1)c1cccc(S(=O)(=O)N2CCCCCC2)c1	inactive	
Cn1c(=NC(=O)c2ccc(S(=O)(=O)N3CCCc4ccccc43)cc2)sc2cc(S(C)(=O)=O)ccc21	active: 3.66 µM	
CN(C)c1ccc(-c2nc3cnccn3c2Nc2ccc3c(c2)OCCO3)cc1	inactive	
CCCn1c(=N)c(C(=O)NCc2ccco2)cc2c(=O)n3cc(C)ccc3nc21	inconclusive: 18.4 µM [rising, single point]	
Cc1nn(Cc2ccc(Cl)cc2)c(C)c1NC(=O)CSc1nc2c(c(C(F)(F)F)n1)CCc1ccccc1-2	active: 8.2 µM	
CC(NC(=O)C1(S(=O)(=O)c2ccc(Cl)cc2)CC1)c1ccccc1 (stereo not given)	active: 20.6 µM	
O=C1NC(=O)N(C2CCCCC2)CC1Br (stereo not given)	inactive	
CCc1ccc2oc(-c3cccc(NC(=O)c4cccnc4)c3)nc2c1	inconclusive: 29.1 µM [cytotoxic, single point]	
COCCCn1cc(C(=O)c2cc(Br)ccc2O)cc(C#N)c1=O	inconclusive: 20.6 µM [cytotoxic, single point]	
CC(=O)c1cccc(-c2ccnc3c2CC(C(=O)NCC2CCOCC2)O3)c1 (stereo not given)	inactive	
Cc1nc(NC(=O)c2ccco2)sc1C(=O)O	active: 4.61 µM	
CC(C)CNC(=O)[C@@H]1CSC2c3ccccc3C(=O)N21 (stereo not given in full)	inconclusive: 18.4 µM [rising, partial curve, poor fit]	
CCn1cc(/C=C(\NC(=O)c2ccccc2Cl)C(=O)NCCCn2ccnc2)c2ccccc21	inconclusive: 29.1 µM [rising, single point]	
COc1cc2ncc(S(=O)(=O)c3ccccc3)c(N3CCC4(CC3)OCCO4)c2cc1OC	inconclusive: 2.06 µM [cytotoxic, partial curve, poor fit]	
Cc1nn(-c2ccc(F)cc2)c(Cl)c1/C=C(/CC(=O)O)c1nc2ccccc2s1	inconclusive: 29.1 µM [rising, single point]	
CN(C)S(=O)(=O)c1cccc(NC(=O)COC(=O)C2CCN(C(=O)c3ccc(F)cc3)CC2)c1	inactive	
O=C(NNc1ccccc1F)C1CCC1		inconclusive: 11.8%
CSc1ccc(CN2C(=O)NC3(CCCCCC3)C2=O)cc1	inconclusive: 23.1 µM [cytotoxic, single point]	
Cc1ccc2oc3nc(C)c(C(=O)Nc4cccc(C(F)(F)F)c4)cc3c(=O)c2c1	inconclusive: 18.4 µM [cytotoxic, partial curve]	
Cc1cccc(OC(C)C(=O)N2CCN(Cc3ccc4c(c3)OCO4)CC2)c1 (stereo not given)	inconclusive: 5.8 µM [cytotoxic, partial curve, poor fit]	
COC(=O)c1ccc(COC(=O)c2ccc(C)c(S(=O)(=O)N3CCCCC3)c2)cc1	inconclusive: 18.4 µM [cytotoxic, single point]	
COc1ccc(OCC(=O)Nc2cc(-c3nc4ccccc4o3)ccc2Cl)cc1	inconclusive: 3.26 µM [rising, partial curve]	
C=CCSc1nnc(-c2cc3c(-c4ccccc4)nn(C)c3s2)n1C	inconclusive: 29.1 µM [cytotoxic, single point]	

A different layout for part of the listing above:

| SMILES | Potency | activity change, negative = cytotoxicity |
| --- | --- | --- |
| O=C1NC(=O)N(C2CCCCC2)CC1Br (stereo not given) | inactive |  |
| COCCCn1cc(C(=O)c2cc(Br)ccc2O)cc(C#N)c1=O | inconclusive: 20.6 µM [cytotoxic, single point] |  |
| COc1ccc(OCC(=O)Nc2cc(-c3nc4ccccc4o3)ccc2Cl)cc1 | inconclusive: 3.26 µM [rising, partial curve] |  |

Later entries:

SMILES	Potency	activity change, negative = cytotoxicity
O=C(NC1CCCC1)C(c1ccncc1)N(C(=O)Cn1nnc(-c2ccccc2F)n1)c1cccc(F)c1 (stereo not given)	inactive	
CCOc1ccc2oc(-c3ccccc3)c(C(=O)N3CCN(C)CC3)c2c1	inconclusive: 14.6 µM [cytotoxic, partial curve]	
CC(=O)Nc1c(O)cc(Br)c2nonc12	inconclusive: 29.1 µM [rising, single point]	
O=C(Cn1cc2c(n1)CCCCC2)Nc1ccccc1Br	inconclusive: 18.4 µM [cytotoxic, single point]	
Cc1ccc2c(c1)c1c(c(=O)n(-c3cccc(Cl)c3)c(=O)n1CC(N)=O)n2C		inconclusive: -3.69%
CN1CCC(NCCC(c2ccc(F)cc2)c2ccc(Cl)cc2)CC1 (stereo not given)	inconclusive: 23.1 µM [cytotoxic, partial curve, poor fit]	
Cc1cc(C)c(OCC(=O)OCC(=O)NC2CCC(C)CC2)c(C)c1 (stereo not given)	inactive	
CCN(CC(O)COc1ccc(OCC(O)CN(CC)C2CCCCC2)cc1)C1CCCCC1 (stereo not given)	inconclusive: 29.1 µM [cytotoxic, single point]	
CCOC(=O)c1c(C)[nH]c(C)c1S(=O)(=O)NCCN1CCN(c2ccccc2F)CC1	inconclusive: 16.4 µM [cytotoxic, single point]	
CC(=O)c1ccc(S(=O)(=O)N(C)CC(=O)Nc2cccc(S(=O)(=O)N3CCCC3)c2)cc1	inactive	
COc1ccc(CCn2c(=N)c(C(=O)NCc3ccco3)cc3c(=O)n4ccccc4nc32)cc1	active: 23.1 µM	
COc1ccc(N(CC(=O)NCCSCc2ccc(C)cc2)S(=O)(=O)c2ccccc2)cc1	active: 6.51 µM	
COC(=O)c1ccc(N)nc1	inconclusive: 25.9 µM [rising, single point]	
CN1CCN(c2nnc(-c3ccccc3)c(-c3ccccc3)n2)CC1	inconclusive: 9.2 µM [cytotoxic, partial curve]	
COc1ccc2c(c1)oc1c(SCc3nc4ccccc4[nH]3)nc(C)nc12	inconclusive: 20.6 µM [cytotoxic, single point]	
COc1ccc(C2C(C#N)=C(N)Oc3cc4c(cc32)OCO4)cc1 (stereo not given)	inactive	
Cc1ccccc1OCCSc1nc2ccc(NC(=O)c3ccco3)cc2s1	inconclusive: 6.51 µM [cytotoxic, partial curve, poor fit]	
Cc1ccc(-c2noc(-c3cccnc3N(C)Cc3ccc(Cl)cc3)n2)cc1	inactive	
CCCSCCCNC(=O)c1sc2nc(C)cc(C)c2c1-n1cccc1	inactive	
Cc1cccc2cc(C(c3nnnn3C(C)(C)C)N(Cc3ccco3)CC3CCCO3)c(=O)[nH]c12 (stereo not given)	inactive	
COC1CCCN(C(=O)c2ccc(OC3CCN(S(=O)(=O)N(C)C)CC3)cc2)C1 (stereo not given)	inconclusive: 20.6 µM [cytotoxic, partial curve, poor fit]	
CCOc1ccc(C(=O)NC(=S)Nc2ccc(NC(=O)c3ccco3)c(C)c2)cc1[N+](=O)[O-]	inconclusive: 4.11 µM [rising, partial curve, poor fit]	
COCC(=O)N(C)C[C@H]1Oc2cc(Br)ccc2S(=O)(=O)N([C@H](C)CO)C[C@H]1C	inactive	
COc1ccc(CNC(=O)c2cc3c(=O)n(Cc4ccc(OC)cc4)ccc3nc2C)cc1	inactive	

SMILES	Potency	activity change, negative = cytotoxicity
CCCCCCNC(=O)CC(c1ccccc1)c1cc(Br)ccc1O (stereo not given)	inconclusive: 20.6 µM [cytotoxic, single point]	
Cc1ccc(-c2nc(CS(=O)(=O)CC(=O)N3CCN(c4ccccc4)CC3)c(C)o2)cc1	inactive	
Cc1nc(N=C(N)N)nc2ccccc12	inconclusive: 0.461 µM [cytotoxic, partial curve, poor fit]	
CC(=O)Nc1nc(NC(=O)/C=C/c2ccccc2)n(-c2ccccc2)n1	inactive	
Cc1cc(C)cc(NC(=S)N(CCN2CCCCC2)Cc2ccco2)c1	inconclusive: 20.6 µM [cytotoxic, partial curve, poor fit]	
O=C(NCc1ccc(F)cc1)c1cc(C2CCCCN2S(=O)(=O)Cc2ccccc2)on1 (stereo not given)	inactive	
CCOc1ccc(NC(=O)CN(c2ccc(C)cc2)S(=O)(=O)c2cccs2)cc1	inactive	
Cc1cc(C)cc(N(C(=O)c2csnn2)C(C(=O)NC2CCCC2)c2cccnc2)c1 (stereo not given)	inactive	
CCc1cccc(C)c1Nc1c(-c2ccc(N(C)C)cc2)nc2cnccn12	inconclusive: 25.9 µM [cytotoxic, partial curve, poor fit]	
COc1cccc(CNC(=O)c2ccc3nc(CCc4ccccc4)oc3c2)c1OC	inactive	
O=S(=O)(Nc1cccc2ccccc12)c1cccs1	inactive	
Cc1cccc(NC(=O)C(=O)NCC2CCCN2S(=O)(=O)c2cccs2)c1C (stereo not given)	inconclusive: 5.17 µM [cytotoxic, partial curve]	
CC(C)c1ccc(CN(C)C(=O)c2ccc(S(=O)(=O)NCc3ccco3)cc2)cc1	inconclusive: 16.4 µM [cytotoxic, single point]	
CSc1nnc(C)c(/C=C/Nc2ccc(F)cc2F)n1	inconclusive: 2.91 µM [cytotoxic, partial curve, poor fit]	
Oc1ccc(-c2nc3c4c(ncn3n2)-c2ccccc2CC42CCCC2)cc1	inconclusive: 32.6 µM [cytotoxic, partial curve, poor fit]	
O=C(CNC(=O)c1cccc(S(=O)(=O)N2CCc3ccccc32)c1)Nc1ccccc1Br	active: 9.2 µM	
C/C(=N/NC(=O)c1ccc(C(C)(C)C)cc1)c1ccccn1	inconclusive: 5.17 µM [cytotoxic, partial curve]	
COc1ccc(-c2cc(C(=O)Oc3ccc(C#N)cc3)no2)cc1	inconclusive: 5.8 µM [cytotoxic, single point]	
CCCc1c(-c2ccc(F)cc2)ncn1Cc1ccccc1OC	inconclusive: 20.6 µM [cytotoxic, partial curve]	
COc1ccc(S(=O)(=O)N2CCOCC2)cc1NC(=O)Cc1sc(C)nc1-c1ccc(F)cc1	active: 11.6 µM	
CS(=O)(=O)N(CC(=O)NCCc1ccccc1)c1cccc([N+](=O)[O-])c1	inactive	
CN(C)C=NC(=O)/C(C#N)=C1\CCc2ccccc2N1	inconclusive: 29.1 µM [cytotoxic, single point]	
